The values that follow come from PMC6877644.

These are yes or no findings as the source states them, for the method shown. In cells and extracts the contact can be indirect. Binding calls can cover weak binding; strength is not graded here. Tags and fused reporters may be left off the sequences shown.

In assay [1] the target is T1, FLAG-JIL-1 (D. melanogaster) (UniProt Q9V3I5).
T1 sequence: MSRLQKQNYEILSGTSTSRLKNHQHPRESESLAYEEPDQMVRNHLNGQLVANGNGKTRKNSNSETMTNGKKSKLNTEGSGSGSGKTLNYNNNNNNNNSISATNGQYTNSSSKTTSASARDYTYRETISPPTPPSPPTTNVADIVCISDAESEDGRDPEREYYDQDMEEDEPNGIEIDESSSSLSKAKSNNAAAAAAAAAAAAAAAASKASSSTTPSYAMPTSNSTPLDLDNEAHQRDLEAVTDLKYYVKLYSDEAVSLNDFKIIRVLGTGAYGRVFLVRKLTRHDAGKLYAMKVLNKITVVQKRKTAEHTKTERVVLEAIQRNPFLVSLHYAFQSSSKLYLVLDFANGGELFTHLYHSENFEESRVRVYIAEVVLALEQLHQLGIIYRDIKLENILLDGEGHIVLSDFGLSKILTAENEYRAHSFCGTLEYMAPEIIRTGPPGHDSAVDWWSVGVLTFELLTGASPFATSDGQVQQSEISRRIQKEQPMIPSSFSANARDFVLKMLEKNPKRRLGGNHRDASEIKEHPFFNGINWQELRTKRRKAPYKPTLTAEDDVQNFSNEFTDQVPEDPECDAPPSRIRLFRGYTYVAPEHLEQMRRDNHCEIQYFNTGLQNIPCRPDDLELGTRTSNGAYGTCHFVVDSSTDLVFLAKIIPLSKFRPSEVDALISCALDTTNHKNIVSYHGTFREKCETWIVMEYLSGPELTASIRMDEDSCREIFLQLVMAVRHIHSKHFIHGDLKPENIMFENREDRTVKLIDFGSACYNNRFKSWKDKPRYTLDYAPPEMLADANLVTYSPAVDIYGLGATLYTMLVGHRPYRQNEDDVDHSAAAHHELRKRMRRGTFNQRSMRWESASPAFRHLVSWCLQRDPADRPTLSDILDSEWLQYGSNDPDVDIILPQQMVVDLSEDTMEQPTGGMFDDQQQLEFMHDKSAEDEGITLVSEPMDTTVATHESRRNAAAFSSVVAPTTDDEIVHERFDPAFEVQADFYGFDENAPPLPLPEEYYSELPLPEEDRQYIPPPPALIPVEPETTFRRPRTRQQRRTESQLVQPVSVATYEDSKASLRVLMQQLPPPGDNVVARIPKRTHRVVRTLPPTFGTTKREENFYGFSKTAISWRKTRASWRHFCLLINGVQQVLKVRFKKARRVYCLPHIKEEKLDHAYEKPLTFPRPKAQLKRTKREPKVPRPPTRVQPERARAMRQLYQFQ
In words: co-IP; extracts of Sf21 cells co-expressing FLAG-JIL-1 (or its C-terminal deletion mutants) and untagged JASPer (or its deletion mutants); IP with α-FLAG beads; western blot with α-JIL-1 and α-JASPer. (A western blot detects proteins with antibodies after separation by electrophoresis.)

Assay [2] has as its target T1, FLAG-JIL-1 (D. melanogaster). The assay is described as follows: co-IP; Sf21 extracts with JJ-complex (FLAG-JIL-1/untagged JASPer) and with FLAG-MSL1/untagged MSL2 and FLAG-MSL3 mixed to similar concentrations; IP with antibodies specific for the bait (MSL1 or JIL-1).
The target is the same in assay [3]. In words: co-purification by FLAG-tag affinity chromatography; FLAG-JIL-1 and untagged JASPer co-expressed in Sf21 (baculovirus dual expression), bound to FLAG-M2 beads, washed with 1 M NaCl, eluted with FLAG peptide; SDS-PAGE with Coomassie.

For the substance JASPer-ΔLEDGF (D. melanogaster), the binding result in assay [1] is reported as “no binding”.

Consider untagged JASPer (D. melanogaster), for which the binding result in assay [1], in assay [2] and in assay [3] was “binds” in each case.
